Data as given in PubChem BioAssay AID504786 (Drosophila RNAi Screening Center, 2011)
Screen: 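Fly genes required for HIF-dependent transcription when hypoxia is mimicked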 (primary screen). Cell system: Drosophila S2 cells with a stable HIF luciferase reporter. Reagents: long dsRNA against Drosophila genes, about 0.2 µg dsRNA per well of a 384-well plate. Time to read-out: three days of knock-down, then 20 h of DFO before reading. Conditions: desferrioxamine (DFO) at 100 µM, an iron chelator that mimics hypoxia, for 20 h. Measured: 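HIF reporter luminescence in cells given 100 µM DFO for 20 h, using the mouse ldh-a hypoxia-response element, scored as per-plate z-scores; higher means greater loss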. Scale: z-score: higher = stronger loss of HIF reporter signal.
The deposit covers about 21,000 reagents; below is an unselected part of those that have a named target and a result. 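Primary screen; positive scores mean lost reporter signal, so the sign may be inverted from the usual convention.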 Names joined by + are all predicted targets of the reagent. Not all columns of the deposit are shown.

z-score, replicate 1, by gene and reagent
GAPcenA (GTPase activating protein and centrosome-associated): DRSC10771 -0.4
Dsp1 (Dorsal switch protein 1): DRSC20315 7.1
Dys + snoRNA:Me18S-A1374: DRSC16232 0.1
CG9630: DRSC16527 -0.3
Liprin-beta: DRSC09795 0
CG3880: DRSC04428 -0.2
P5cr-2 (Pyrroline-5-carboxylate reductase-like 2): DRSC15889 -0.2
CG3032: DRSC18266 -0.3
Pgm1 (Phosphoglucose mutase 1): DRSC10490 -0.3
CG11951: DRSC14442 -0.4
CG15914: DRSC19739 -0.2
CG8252: DRSC07126 -0.3
zyd (zydeco): DRSC20716 -0.1
ACOX1 (acyl-CoA oxidase 1): DRSC05941 -0.2
Nbr (Nibbler): DRSC03166 -0.1
CG7567: DRSC16258 -0.6
RtcB (RtcB RNA ligase): DRSC03280 -0.4
Rac2: DRSC11262 1.1
Myo28B1 (Myosin 28B1): DRSC03375 -0.1
ZnT49B (Zinc transporter 49B): DRSC07225 -0.4
rib (ribbon): DRSC07021 -0.4
CG13050: DRSC09931 -0.1
CG33757: DRSC05159 -0.2
CG10209: DRSC05980 -0.4
CG4382: DRSC02743 -0.3
CG4763: DRSC04009 -0.1; DRSC04487 -0.4
CG9541: DRSC03257 -0.3
Pk34A (Protein kinase at 34A): DRSC03398 -0.3
SCOT (Succinyl-CoA:3-ketoacid CoA transferase): DRSC08186 -0.2
CG31076: DRSC16017 -0.3
Sfxn2 (Sideroflexin 2): DRSC10718 -0.3
Acsf2 (Acyl-CoA synthetase family member 2): DRSC02172 -0.2
CG10257: DRSC05985 -0.3
CG14877: DRSC15001 -0.4
c(2)M (crossover suppressor on 2 of Manheim): DRSC01922 -0.3
dpr18 (defective proboscis extension response 18): DRSC19606 -0.3
Ser8: DRSC06891 0
Cdc45 (Cell division cycle 45): DRSC17747 1.6; DRSC18164 -0.3
CG13305: DRSC09975 -0.1
CG31279: DRSC13158 -0.3
CG3347: DRSC00597 -0.1
hppy (happyhour): DRSC07014 -0.3; DRSC07015 -0.3; DRSC07016 -0.2
Vha16-3 (Vacuolar H[+] ATPase 16kD subunit 3): DRSC10872 -0.3
CG32536 + CG32537: DRSC20074 -0.2
CG44325: DRSC18423 -0.2
Glt (Glutactin): DRSC03333 -0.4
Pgant3 (Polypeptide N-Acetylgalactosaminyltransferase 3): DRSC05942 -0.1
CG7523: DRSC16254 -0.1
CG42676: DRSC08227 -0.3; DRSC08392 -0.3
CG32379: DRSC10318 0
CG4607: DRSC18375 -0.3
CG1774: DRSC15258 -0.1
pippin: DRSC04489 -0.3
Wdr82 (WD repeat domain 82): DRSC02595 -0.1
CG13458: DRSC10005 -0.3
CR18275 (pseudo): DRSC18151 -0.4
CG13044: DRSC09925 -0.3
Dlic (Dynein light intermediate chain): DRSC19824 -0.1
CG34236: DRSC05435 -0.2
Oatp26F (Organic anion transporting polypeptide 26F): DRSC02149 -0.3; DRSC02272 -0.1; DRSC02695 -0.2
Nse1 (Non-SMC element 1): DRSC02147 -0.2
CG10898: DRSC14279 -0.3
CG32221: DRSC09638 -0.3
Acp26Ab (Accessory gland protein 26Ab): DRSC01856 -0.5
CG10211: DRSC02027 -0.1
CG13538: DRSC04180 -0.3
CG33689: DRSC09424 -0.1
CG42346: DRSC20622 -0.1; DRSC20644 0.4
CG42238: DRSC03180 -0.3
pkaap: DRSC01925 0
Jheh3 (Juvenile hormone epoxide hydrolase 3): DRSC06533 -0.2
PGRP-SD (Peptidoglycan recognition protein SD): DRSC10856 -0.4
CG30158: DRSC04956 -0.2; DRSC04974 -0.2; DRSC04975 -0.3; DRSC05012 -0.2

In a second layout: results already given.
{"Gene":"Acp26Ab (Accessory gland protein 26Ab)","amplicon":"DRSC01856","z-score, replicate 1":-0.5}
{"Gene":"CG10211","amplicon":"DRSC02027","z-score, replicate 1":-0.1}
{"Gene":"CG13538","amplicon":"DRSC04180","z-score, replicate 1":-0.3}
{"Gene":"CG33689","amplicon":"DRSC09424","z-score, replicate 1":-0.1}
{"Gene":"CG42346","amplicon":"DRSC20622","z-score, replicate 1":-0.1}
{"Gene":"CG42346","amplicon":"DRSC20644","z-score, replicate 1":0.4}
{"Gene":"CG42238","amplicon":"DRSC03180","z-score, replicate 1":-0.3}
{"Gene":"pkaap","amplicon":"DRSC01925","z-score, replicate 1":0}
{"Gene":"Jheh3 (Juvenile hormone epoxide hydrolase 3)","amplicon":"DRSC06533","z-score, replicate 1":-0.2}
{"Gene":"PGRP-SD (Peptidoglycan recognition protein SD)","amplicon":"DRSC10856","z-score, replicate 1":-0.4}
{"Gene":"CG30158","amplicon":"DRSC04956","z-score, replicate 1":-0.2}
{"Gene":"CG30158","amplicon":"DRSC04974","z-score, replicate 1":-0.2}
{"Gene":"CG30158","amplicon":"DRSC04975","z-score, replicate 1":-0.3}
{"Gene":"CG30158","amplicon":"DRSC05012","z-score, replicate 1":-0.2}
